Reference: article doi:10.1101/2025.04.28.651057
Numbering of substitutions follows the chain as printed. Results are given in words; binding and its absence hold for the method and conditions named. Binding seen in cells or lysates may run through a third protein. Some binding calls cover weakened binding; strength is not graded here. For some of these results: Where a sequence is shown, tags or fusion partners need not be part of it.

Sequences of proteins named here, by UniProt entry; tags and fusion partners are left off.
UniProt Q7Z5G4: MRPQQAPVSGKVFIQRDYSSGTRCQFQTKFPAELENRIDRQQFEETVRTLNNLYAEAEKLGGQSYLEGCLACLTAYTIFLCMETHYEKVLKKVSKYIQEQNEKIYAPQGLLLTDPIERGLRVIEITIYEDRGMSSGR
UniProt Q9Y397: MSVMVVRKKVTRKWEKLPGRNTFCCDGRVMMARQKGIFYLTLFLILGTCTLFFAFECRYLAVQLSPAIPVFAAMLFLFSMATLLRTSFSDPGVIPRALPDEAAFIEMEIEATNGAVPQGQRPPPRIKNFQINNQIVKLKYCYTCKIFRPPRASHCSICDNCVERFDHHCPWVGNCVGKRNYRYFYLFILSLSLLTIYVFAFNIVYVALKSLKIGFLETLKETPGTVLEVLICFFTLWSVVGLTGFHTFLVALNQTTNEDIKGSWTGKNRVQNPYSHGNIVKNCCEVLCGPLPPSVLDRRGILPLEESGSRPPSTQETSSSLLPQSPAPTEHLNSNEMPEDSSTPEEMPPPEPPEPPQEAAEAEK
UniProt Q9ULC8: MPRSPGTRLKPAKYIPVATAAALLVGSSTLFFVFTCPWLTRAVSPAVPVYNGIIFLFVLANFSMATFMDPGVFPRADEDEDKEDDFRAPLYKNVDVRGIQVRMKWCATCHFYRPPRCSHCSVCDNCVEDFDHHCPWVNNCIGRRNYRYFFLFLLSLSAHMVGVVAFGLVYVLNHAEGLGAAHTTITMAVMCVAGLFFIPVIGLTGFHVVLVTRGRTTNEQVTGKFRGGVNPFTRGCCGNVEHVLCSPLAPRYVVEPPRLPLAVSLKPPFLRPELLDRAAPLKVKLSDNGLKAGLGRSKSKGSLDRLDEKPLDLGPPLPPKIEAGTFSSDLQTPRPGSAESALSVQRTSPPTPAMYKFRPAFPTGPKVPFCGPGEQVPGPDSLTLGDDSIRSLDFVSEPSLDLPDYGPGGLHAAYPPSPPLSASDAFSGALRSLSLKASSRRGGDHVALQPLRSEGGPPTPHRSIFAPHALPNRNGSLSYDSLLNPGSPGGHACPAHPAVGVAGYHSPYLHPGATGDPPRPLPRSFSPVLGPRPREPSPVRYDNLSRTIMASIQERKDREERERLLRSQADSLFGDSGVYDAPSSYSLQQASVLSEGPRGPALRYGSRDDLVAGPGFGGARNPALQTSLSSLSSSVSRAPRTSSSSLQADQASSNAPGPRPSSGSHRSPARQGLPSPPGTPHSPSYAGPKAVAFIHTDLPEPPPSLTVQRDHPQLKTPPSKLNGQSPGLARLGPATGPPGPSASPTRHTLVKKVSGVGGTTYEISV

How the values were obtained:
Assay in all cases: co-IP
[1] = molecular target: T1, 3xFLAG-GOLGA7B (human) (human) (UniProt Q2TAP0)
T1 sequence: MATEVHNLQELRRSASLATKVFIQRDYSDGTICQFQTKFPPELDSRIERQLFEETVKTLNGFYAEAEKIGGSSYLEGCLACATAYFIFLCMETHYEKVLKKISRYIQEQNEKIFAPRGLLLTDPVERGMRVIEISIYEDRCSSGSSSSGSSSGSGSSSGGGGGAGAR

[2] = molecular target: 3xFLAG-GOLGA7 (human) (human) (UniProt Q7Z5G4)
[3] = molecular target: T2, GOLGA7B^2CS (Cys78Ser, Cys81Ser) (human) (UniProt Q2TAP0)
T2 sequence: T1 sequence with C78S, C81S

binding [1] | binding [2] | binding [3] | Substance
no binding | binds | – | endogenous human ZDHHC9 (from UniProt Q9Y397 1-364) (enzyme)
binds | – | no binding | endogenous human ZDHHC8 (from UniProt Q9ULC8 1-765) (enzyme)
